Measurements: article PMC8301362
Results are given in words; binding and its absence hold for the method and conditions named. In cells and extracts the contact can be indirect. Some entries that bind do so weakly or less than the wild type.

T1: Myocilin (MYOC) (mouse (endogenous in C2C12)) (UniProt O70624)
T1 sequence: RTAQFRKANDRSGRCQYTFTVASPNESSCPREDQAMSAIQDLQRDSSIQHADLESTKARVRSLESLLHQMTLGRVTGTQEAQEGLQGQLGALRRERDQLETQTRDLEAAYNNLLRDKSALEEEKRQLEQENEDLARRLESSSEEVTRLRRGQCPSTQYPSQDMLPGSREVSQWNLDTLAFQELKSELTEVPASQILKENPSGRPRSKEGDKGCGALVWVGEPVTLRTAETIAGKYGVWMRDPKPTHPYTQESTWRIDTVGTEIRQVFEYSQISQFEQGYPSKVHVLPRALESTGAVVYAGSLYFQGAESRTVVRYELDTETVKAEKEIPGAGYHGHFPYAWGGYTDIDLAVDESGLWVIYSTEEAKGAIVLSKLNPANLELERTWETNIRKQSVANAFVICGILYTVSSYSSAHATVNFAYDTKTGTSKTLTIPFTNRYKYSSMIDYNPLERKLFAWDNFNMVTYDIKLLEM

T2: Caveolin-1 (CAV1) (mouse (endogenous in C2C12)) (UniProt P49817)
T2 sequence: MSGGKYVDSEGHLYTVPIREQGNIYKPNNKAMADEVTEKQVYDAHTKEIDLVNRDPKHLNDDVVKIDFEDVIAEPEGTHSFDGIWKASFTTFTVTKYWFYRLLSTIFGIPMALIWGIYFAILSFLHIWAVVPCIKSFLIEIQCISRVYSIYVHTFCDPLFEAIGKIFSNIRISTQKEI


Columns and labels:
[1] = molecular target: T1, Myocilin (MYOC) (mouse (endogenous in C2C12)); test: co-IP; lysate (RIPA) of C2C12 cells on day 7 of differentiation; immunoprecipitation with anti-MYOC or anti-CAV1 antibody, protein A + G agarose beads, Western blotting for the other protein; endogenous proteins
[2] = molecular target: T2, Caveolin-1 (CAV1) (mouse (endogenous in C2C12)); test: as above

Binder	binding [1]	binding [2]
Caveolin-1 (CAV1) (protein, UniProt P49817 1-178) MSGGKYVDSEGHLYTVPIREQGNIYKPNNKAMADEVTEKQVYDAHTKEIDLVNRDPKHLNDDVVKIDFEDVIAEPEGTHSFDGIWKASFTTFTVTKYWFYRLLSTIFGIPMALIWGIYFAILSFLHIWAVVPCIKSFLIEIQCISRVYSIYVHTFCDPLFEAIGKIFSNIRISTQKEI	binds	
Myocilin (MYOC) (protein, UniProt O70624 19-490) RTAQFRKANDRSGRCQYTFTVASPNESSCPREDQAMSAIQDLQRDSSIQHADLESTKARVRSLESLLHQMTLGRVTGTQEAQEGLQGQLGALRRERDQLETQTRDLEAAYNNLLRDKSALEEEKRQLEQENEDLARRLESSSEEVTRLRRGQCPSTQYPSQDMLPGSREVSQWNLDTLAFQELKSELTEVPASQILKENPSGRPRSKEGDKGCGALVWVGEPVTLRTAETIAGKYGVWMRDPKPTHPYTQESTWRIDTVGTEIRQVFEYSQISQFEQGYPSKVHVLPRALESTGAVVYAGSLYFQGAESRTVVRYELDTETVKAEKEIPGAGYHGHFPYAWGGYTDIDLAVDESGLWVIYSTEEAKGAIVLSKLNPANLELERTWETNIRKQSVANAFVICGILYTVSSYSSAHATVNFAYDTKTGTSKTLTIPFTNRYKYSSMIDYNPLERKLFAWDNFNMVTYDIKLLEM		binds
